Data taken from PubChem BioAssay AID624297 (National Center for Advancing Translational Sciences (NCATS), 2012).
The campaign covered roughly 340,000 compounds. About 6,200 (1.8%) were called active. This list was built around the results that the source calls inconclusive (neither active nor inactive); the mix of calls is not that of the screen. The call rests on the fitted dose curve; in most records, active means well fitted activation curve with a large enough effect; inconclusive means small, poorly fitted or top-dose-only effect; inactive means no such curve, though single readings can be large or run the other way. Where the call is inconclusive, the potency comes from a doubtful curve fit.

Experiment: A quantitative high throughput screen for small molecules that induce DNA re-replication in SW480 colon adenocarcinoma cells. Further: nearly all actives have a fitted effect of over 55% in size.
Settings: Hoechst DNA content imaging, 48 h; series mostly up to 46.1 µM
How it was run: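 First, 250 cells per well were seeded. Next, compound or vehicle (23 nL) was pinned in, plates sat 48 hr at 37 C. Finally Hoechst was added for 40 min before fluorescence scanning.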
Potency means the concentration at half of the fitted maximal effect.

Compound | Potency
Nc1c(N(CCCO)C(=O)CCCN2C(=O)c3cccc4cccc(c34)C2=O)c(=O)[nH]c(=O)n1Cc1ccccc1 | inactive
CCOC(=O)c1c(NC(=O)CSc2ncccn2)sc2c1CC(C)(C)NC2(C)C | inactive
CC1CCN(CCCN2C(=O)C3C(C(=O)Nc4cccc(Cl)c4)C4C=CC3(O4)C2C(=O)NC2CCCCC2)CC1 (stereo not given) | inconclusive: 29.1 µM [activator, single point]
CC[C@@]1(C(=O)OC)N[C@H](CN(C)S(=O)(=O)c2ccc(C(F)(F)F)cc2)[C@@H]2C(=O)N(C)C(=O)[C@@H]21 | inconclusive: 1.03 µM [activator, full curve]
O=C(Nc1ccc2nc(-c3ccccn3)c(-c3ccccn3)nc2c1)N1CCOCC1 | inconclusive: 14.6 µM [activator, single point]
COc1ccc(C2=NS(=O)(=O)N(C)C(C(=O)Nc3ccc(OC)c(OC)c3)=C2)cc1 | inactive
CCOc1ccc(C(C)NC(=S)NC2CCCCC2)cc1OCC (stereo not given) | inactive
C=C1CC2C3CC[C@@]4(OCOC45COCO5)[C@@]3(C)C(O)CC2[C@@]2(C)CCC(=O)C=C12 (stereo not given in full) | inconclusive: 0.82 µM [activator, full curve, poor fit]
Cc1nnc(SCC(=O)NC2CCS(=O)(=O)C2)n1-c1ccccc1 (stereo not given) | inactive
CC1CCc2c(sc(NC(=O)CSc3nc4c(c(C(F)(F)F)n3)CCc3ccccc3-4)c2C(N)=O)C1 (stereo not given) | inactive
CC(C)(C)OC(=O)NC(CC(=O)OCc1ccccc1)C(=O)O (stereo not given) | inconclusive: 29.1 µM [activator, single point]
COc1ccc(N2CCN(S(=O)(=O)c3ccc4c(c3)NC(=O)CC(=O)N4)CC2)cc1 | inconclusive: 2.06 µM [activator, single point]
Cc1ccc(/C=C/C(=O)OCC(=O)NCCN2C(=O)CSC2=O)cc1 | inconclusive: 2.91 µM [activator, full curve, poor fit]
Cc1ccc(N2C(=O)CC(Sc3cccs3)C2=O)cc1 (stereo not given) | inactive
COc1ccc(OCCN2CCN(C(=O)c3ccc(OC)cc3)CC2)cc1 | inactive
CCCCN(CCCC)CCNC(=O)c1cn(CC)c2ccc(S(=O)(=O)N(C)C3CCCCC3)cc2c1=O | inconclusive: 0.206 µM [activator, full curve, poor fit]
COCCN(C(=O)Cc1cccs1)c1nnc(-c2ccncc2)s1 | inactive
CC(C)CC(=O)/C(=C\c1ccc(Cl)cc1Cl)n1cncn1 | active: 6.51 µM
NS(=O)(=O)c1cnccc1Oc1cccc(Cl)c1 | inconclusive: 0.103 µM [activator, full curve, poor fit]
CCOc1ccc(N2C(=O)C(Cl)=C(Nc3ccccc3O)C2=O)cc1 | inconclusive: 29.1 µM [activator, single point]
CCSc1ccc2nnc(-c3cccc(F)c3)n2n1 | inactive
COc1ccc(C(=O)CN2CCN(CCN3C(=O)c4cccc5cccc(c45)C3=O)CC2)cc1 | inconclusive: 18.4 µM [activator, single point]
Cc1ccc2nc3c(cc2c1)c(NC(=O)c1cccnc1)nn3C | inconclusive: 16.4 µM [activator, partial curve, poor fit]
O=C1C2(CCCC13COC(c1ccc(O)cc1)OC3)COC(c1ccc(O)cc1)OC2 (stereo not given) | inconclusive: 25.9 µM [activator, single point]

5 compounds out of the list, ordered by heavy-atom count, rising.
Compound | Potency
Cc1nnc(SCC(=O)NC2CCS(=O)(=O)C2)n1-c1ccccc1 (stereo not given) | inactive
CCOc1ccc(N2C(=O)C(Cl)=C(Nc3ccccc3O)C2=O)cc1 | inconclusive: 29.1 µM [activator, single point]
C=C1CC2C3CC[C@@]4(OCOC45COCO5)[C@@]3(C)C(O)CC2[C@@]2(C)CCC(=O)C=C12 (stereo not given in full) | inconclusive: 0.82 µM [activator, full curve, poor fit]
O=C1C2(CCCC13COC(c1ccc(O)cc1)OC3)COC(c1ccc(O)cc1)OC2 (stereo not given) | inconclusive: 25.9 µM [activator, single point]
CC1CCc2c(sc(NC(=O)CSc3nc4c(c(C(F)(F)F)n3)CCc3ccccc3-4)c2C(N)=O)C1 (stereo not given) | inactive

Next part

Compound | Potency
CCCC(C(=O)NNC(=O)c1ccncc1)c1ccccc1 (stereo not given) | inactive
COc1ccc(N(CC(=O)N/N=C/c2cc(OC)ccc2OC)S(=O)(=O)c2ccccc2)cc1 | inconclusive: 20.6 µM [activator, single point]
Cc1ccc(NC(=O)CSc2nnc(-c3ccco3)c(-c3ccco3)n2)cc1 | active: 16.4 µM
CCCc1cc(-c2nc(-c3ccc(Br)cc3)cs2)ccn1 | inconclusive: 7.31 µM [activator, partial curve, poor fit]
CCOC(=O)C1=C(c2ccccc2)Nc2ncnn2C1c1ccc(OC)c(OC)c1OC (stereo not given) | inconclusive: 20.6 µM [activator, single point]
CCOC(=O)N1CCN(c2c(F)cc3[nH]c(=S)[nH]c3c2Br)CC1 | inconclusive: 18.4 µM [activator, single point]
Cc1cc(NC(=O)c2cccc(N3C(=O)CCC3=O)c2)no1 | inconclusive: 11.6 µM [activator, partial curve, poor fit]
O=S(Cc1ccc(Br)cc1)Cc1nnc(SCc2ccc(Br)cc2)n1-c1ccccc1 (stereo not given) | inconclusive: 23.1 µM [activator, single point]
Nc1ccc(-c2cnc3ccccc3n2)cc1 | inconclusive: 18.4 µM [activator, partial curve, poor fit]
O=C(NCCc1c[nH]c2ccc(Cl)cc12)c1cccnc1 | inconclusive: 23.1 µM [activator, single point]
Cc1nnc(SCc2nc(N)nc(Nc3ccccc3)n2)s1 | inactive
COc1cccc(Nc2ncccc2C(=O)Nc2ccccc2)c1 | inconclusive: 20.6 µM [activator, partial curve, poor fit]
Nc1nnn(CC(=O)N/N=C/c2cn[nH]c2-c2ccccc2)n1 | inconclusive: 0.58 µM [activator, full curve, poor fit]
Cc1nn(-c2ccccn2)c2c1-c1nc(N3CCOCC3)ncc1CC2 | inactive
COc1ccc(CCC(=O)Nc2ccc(C)c(S(=O)(=O)N(C)C)c2)cc1OC | inactive
COC(=O)c1ccc(C(NC(=O)OCc2ccccc2)/C(F)=C/[C@@H](C)C(=O)NCc2ccc(OC)c(OC)c2)cc1 (stereo not given in full) | active: 16.4 µM
N#Cc1ccccc1Cn1cc(/C=C/[N+](=O)[O-])c2ccccc21 | inconclusive: 29.1 µM [activator, single point]
Brc1ccc(/C=C/C=N/Nc2nc3ccccc3s2)cc1 | inconclusive: 5.17 µM [activator, full curve, poor fit]
O=Cc1cccn1Cc1ccccc1[N+](=O)[O-] | inconclusive: 6.51 µM [activator, single point]
CCc1cc(CNC(=O)C2CCC(=O)N(CCc3cccc(F)c3)C2)on1 (stereo not given) | inactive
CCCCNC(=S)NNC(=O)c1ccco1 | inconclusive: 29.1 µM [activator, single point]
O=C(O)c1ccc(C[n+]2c(-c3ccccc3)csc2Nc2ccccc2)cc1 | inactive
O=C(O)CSc1ccc(NC(=O)Nc2ccccc2F)cc1 | inactive
Cc1cccc(C)c1NC(=O)c1sccc1SCc1cccc(C(F)(F)F)c1 | inconclusive: 29.1 µM [activator, single point]

Compound | Potency
COc1ccc(S(=O)(=O)N2CCC(C(=O)Oc3ccc(C)cc3)CC2)cc1OC | inactive
O=C(CNC(=O)c1ccccc1Br)N/N=C\c1cc([N+](=O)[O-])cc(Br)c1O | inconclusive: 29.1 µM [activator, single point]
C(=Cc1c[nH]c2ccccc12)c1nccc2ccccc12 | active: 6.51 µM
CCOc1cccc2cc(C(=O)NCCC3=CCCCC3)c(=O)oc12 | inactive
CS(=O)(=O)N(Cc1ccccc1F)c1ccccc1 | inactive
N#Cc1ccc(OCC(=O)Nc2cc(S(=O)(=O)N3CCOCC3)ccc2N2CCCC2)cc1 | inconclusive: 6.51 µM [activator, single point]
Cc1cc(OCC(=O)N(Cc2ccco2)C2CCS(=O)(=O)C2)cc(C)c1Cl (stereo not given) | inconclusive: 6.51 µM [activator, single point]
Cc1cc(C)n(CC(O)Cn2c3ccc(Br)cc3c3cc(Br)ccc32)c(=O)n1 (stereo not given) | inconclusive: 29.1 µM [activator, single point]
Oc1ccc(-c2cn3ccccc3n2)cc1 | inconclusive: 0.092 µM [activator, full curve, poor fit]
CN(C)CCCN(C(=O)c1cc(-c2cccs2)nc2ccccc12)c1nc2c(F)cccc2s1 | inconclusive: 29.1 µM [activator, single point]
O=C(Nc1nc2ccccc2n1CCN1CCOCC1)c1cn(-c2ccccc2)nc1-c1ccccc1 | inconclusive: 18.4 µM [activator, single point]
O=C(CCN1C(=O)C2C3CC(C(Br)C3Br)C2C1=O)OCC(=O)c1cccc([N+](=O)[O-])c1 (stereo not given) | inactive
Cc1cccc(C(=O)NCCC(=O)Nc2ccc(C)c(F)c2)c1 | inactive
Cc1ccc2c(c1)C(=O)C(=O)N2Cc1ccc(Cl)cc1 | inconclusive: 18.4 µM [activator, single point]
COc1ccc(/C=C/C(=O)NC(=S)NNC(=O)c2ccco2)cc1 | inconclusive: 18.4 µM [activator, single point]
Fc1ccc(Nc2nc(NCc3ccco3)c3ccccc3n2)cc1 | inconclusive: 16.4 µM [activator, single point]
CCOC(=O)C(=O)N=Nc1c(O)n(C)c2ccccc12 | inactive
CCOc1[nH]n(-c2ccccc2)c(=O)c1C=Nc1ccc(C)cc1 | inactive
COc1ccccc1NC(=O)c1ccc(NC(=O)CSc2nc(N)cc(=O)[nH]2)cc1 | inconclusive: 18.4 µM [activator, single point]
CCOC(=O)C1(Cc2ccccc2C)CCCN(C(=O)COC)C1 (stereo not given) | inactive
O=C(Nc1ccc(N2CCOCC2)cc1)c1cc2c(s1)CCCCC2 | inconclusive: 14.6 µM [activator, partial curve, poor fit]
COc1cc(CNCc2cc(OC)c(OC)c(OC)c2)cc(OC)c1 | inconclusive: 0.0731 µM [activator, full curve, poor fit]
